According to patent US20250129370A1, “METHOD FOR REDUCING HEPATIC TRIGLYCERIDES” (ADAERATA, LIMITED PARTNERSHIP, priority 2022, published 2025):
No constants are given. Whether binding was seen depends on the method and setting. In cells and extracts the contact can be indirect. Some results given as binding are weak or reduced against the parent protein; the word gives no strength. Tags and fused reporters may be left off the sequences shown.

Protein sequences, listed by entry. Tags and fused reporters are not part of them. Residues count along the entry.
UniProt P04114, residues 28-4563: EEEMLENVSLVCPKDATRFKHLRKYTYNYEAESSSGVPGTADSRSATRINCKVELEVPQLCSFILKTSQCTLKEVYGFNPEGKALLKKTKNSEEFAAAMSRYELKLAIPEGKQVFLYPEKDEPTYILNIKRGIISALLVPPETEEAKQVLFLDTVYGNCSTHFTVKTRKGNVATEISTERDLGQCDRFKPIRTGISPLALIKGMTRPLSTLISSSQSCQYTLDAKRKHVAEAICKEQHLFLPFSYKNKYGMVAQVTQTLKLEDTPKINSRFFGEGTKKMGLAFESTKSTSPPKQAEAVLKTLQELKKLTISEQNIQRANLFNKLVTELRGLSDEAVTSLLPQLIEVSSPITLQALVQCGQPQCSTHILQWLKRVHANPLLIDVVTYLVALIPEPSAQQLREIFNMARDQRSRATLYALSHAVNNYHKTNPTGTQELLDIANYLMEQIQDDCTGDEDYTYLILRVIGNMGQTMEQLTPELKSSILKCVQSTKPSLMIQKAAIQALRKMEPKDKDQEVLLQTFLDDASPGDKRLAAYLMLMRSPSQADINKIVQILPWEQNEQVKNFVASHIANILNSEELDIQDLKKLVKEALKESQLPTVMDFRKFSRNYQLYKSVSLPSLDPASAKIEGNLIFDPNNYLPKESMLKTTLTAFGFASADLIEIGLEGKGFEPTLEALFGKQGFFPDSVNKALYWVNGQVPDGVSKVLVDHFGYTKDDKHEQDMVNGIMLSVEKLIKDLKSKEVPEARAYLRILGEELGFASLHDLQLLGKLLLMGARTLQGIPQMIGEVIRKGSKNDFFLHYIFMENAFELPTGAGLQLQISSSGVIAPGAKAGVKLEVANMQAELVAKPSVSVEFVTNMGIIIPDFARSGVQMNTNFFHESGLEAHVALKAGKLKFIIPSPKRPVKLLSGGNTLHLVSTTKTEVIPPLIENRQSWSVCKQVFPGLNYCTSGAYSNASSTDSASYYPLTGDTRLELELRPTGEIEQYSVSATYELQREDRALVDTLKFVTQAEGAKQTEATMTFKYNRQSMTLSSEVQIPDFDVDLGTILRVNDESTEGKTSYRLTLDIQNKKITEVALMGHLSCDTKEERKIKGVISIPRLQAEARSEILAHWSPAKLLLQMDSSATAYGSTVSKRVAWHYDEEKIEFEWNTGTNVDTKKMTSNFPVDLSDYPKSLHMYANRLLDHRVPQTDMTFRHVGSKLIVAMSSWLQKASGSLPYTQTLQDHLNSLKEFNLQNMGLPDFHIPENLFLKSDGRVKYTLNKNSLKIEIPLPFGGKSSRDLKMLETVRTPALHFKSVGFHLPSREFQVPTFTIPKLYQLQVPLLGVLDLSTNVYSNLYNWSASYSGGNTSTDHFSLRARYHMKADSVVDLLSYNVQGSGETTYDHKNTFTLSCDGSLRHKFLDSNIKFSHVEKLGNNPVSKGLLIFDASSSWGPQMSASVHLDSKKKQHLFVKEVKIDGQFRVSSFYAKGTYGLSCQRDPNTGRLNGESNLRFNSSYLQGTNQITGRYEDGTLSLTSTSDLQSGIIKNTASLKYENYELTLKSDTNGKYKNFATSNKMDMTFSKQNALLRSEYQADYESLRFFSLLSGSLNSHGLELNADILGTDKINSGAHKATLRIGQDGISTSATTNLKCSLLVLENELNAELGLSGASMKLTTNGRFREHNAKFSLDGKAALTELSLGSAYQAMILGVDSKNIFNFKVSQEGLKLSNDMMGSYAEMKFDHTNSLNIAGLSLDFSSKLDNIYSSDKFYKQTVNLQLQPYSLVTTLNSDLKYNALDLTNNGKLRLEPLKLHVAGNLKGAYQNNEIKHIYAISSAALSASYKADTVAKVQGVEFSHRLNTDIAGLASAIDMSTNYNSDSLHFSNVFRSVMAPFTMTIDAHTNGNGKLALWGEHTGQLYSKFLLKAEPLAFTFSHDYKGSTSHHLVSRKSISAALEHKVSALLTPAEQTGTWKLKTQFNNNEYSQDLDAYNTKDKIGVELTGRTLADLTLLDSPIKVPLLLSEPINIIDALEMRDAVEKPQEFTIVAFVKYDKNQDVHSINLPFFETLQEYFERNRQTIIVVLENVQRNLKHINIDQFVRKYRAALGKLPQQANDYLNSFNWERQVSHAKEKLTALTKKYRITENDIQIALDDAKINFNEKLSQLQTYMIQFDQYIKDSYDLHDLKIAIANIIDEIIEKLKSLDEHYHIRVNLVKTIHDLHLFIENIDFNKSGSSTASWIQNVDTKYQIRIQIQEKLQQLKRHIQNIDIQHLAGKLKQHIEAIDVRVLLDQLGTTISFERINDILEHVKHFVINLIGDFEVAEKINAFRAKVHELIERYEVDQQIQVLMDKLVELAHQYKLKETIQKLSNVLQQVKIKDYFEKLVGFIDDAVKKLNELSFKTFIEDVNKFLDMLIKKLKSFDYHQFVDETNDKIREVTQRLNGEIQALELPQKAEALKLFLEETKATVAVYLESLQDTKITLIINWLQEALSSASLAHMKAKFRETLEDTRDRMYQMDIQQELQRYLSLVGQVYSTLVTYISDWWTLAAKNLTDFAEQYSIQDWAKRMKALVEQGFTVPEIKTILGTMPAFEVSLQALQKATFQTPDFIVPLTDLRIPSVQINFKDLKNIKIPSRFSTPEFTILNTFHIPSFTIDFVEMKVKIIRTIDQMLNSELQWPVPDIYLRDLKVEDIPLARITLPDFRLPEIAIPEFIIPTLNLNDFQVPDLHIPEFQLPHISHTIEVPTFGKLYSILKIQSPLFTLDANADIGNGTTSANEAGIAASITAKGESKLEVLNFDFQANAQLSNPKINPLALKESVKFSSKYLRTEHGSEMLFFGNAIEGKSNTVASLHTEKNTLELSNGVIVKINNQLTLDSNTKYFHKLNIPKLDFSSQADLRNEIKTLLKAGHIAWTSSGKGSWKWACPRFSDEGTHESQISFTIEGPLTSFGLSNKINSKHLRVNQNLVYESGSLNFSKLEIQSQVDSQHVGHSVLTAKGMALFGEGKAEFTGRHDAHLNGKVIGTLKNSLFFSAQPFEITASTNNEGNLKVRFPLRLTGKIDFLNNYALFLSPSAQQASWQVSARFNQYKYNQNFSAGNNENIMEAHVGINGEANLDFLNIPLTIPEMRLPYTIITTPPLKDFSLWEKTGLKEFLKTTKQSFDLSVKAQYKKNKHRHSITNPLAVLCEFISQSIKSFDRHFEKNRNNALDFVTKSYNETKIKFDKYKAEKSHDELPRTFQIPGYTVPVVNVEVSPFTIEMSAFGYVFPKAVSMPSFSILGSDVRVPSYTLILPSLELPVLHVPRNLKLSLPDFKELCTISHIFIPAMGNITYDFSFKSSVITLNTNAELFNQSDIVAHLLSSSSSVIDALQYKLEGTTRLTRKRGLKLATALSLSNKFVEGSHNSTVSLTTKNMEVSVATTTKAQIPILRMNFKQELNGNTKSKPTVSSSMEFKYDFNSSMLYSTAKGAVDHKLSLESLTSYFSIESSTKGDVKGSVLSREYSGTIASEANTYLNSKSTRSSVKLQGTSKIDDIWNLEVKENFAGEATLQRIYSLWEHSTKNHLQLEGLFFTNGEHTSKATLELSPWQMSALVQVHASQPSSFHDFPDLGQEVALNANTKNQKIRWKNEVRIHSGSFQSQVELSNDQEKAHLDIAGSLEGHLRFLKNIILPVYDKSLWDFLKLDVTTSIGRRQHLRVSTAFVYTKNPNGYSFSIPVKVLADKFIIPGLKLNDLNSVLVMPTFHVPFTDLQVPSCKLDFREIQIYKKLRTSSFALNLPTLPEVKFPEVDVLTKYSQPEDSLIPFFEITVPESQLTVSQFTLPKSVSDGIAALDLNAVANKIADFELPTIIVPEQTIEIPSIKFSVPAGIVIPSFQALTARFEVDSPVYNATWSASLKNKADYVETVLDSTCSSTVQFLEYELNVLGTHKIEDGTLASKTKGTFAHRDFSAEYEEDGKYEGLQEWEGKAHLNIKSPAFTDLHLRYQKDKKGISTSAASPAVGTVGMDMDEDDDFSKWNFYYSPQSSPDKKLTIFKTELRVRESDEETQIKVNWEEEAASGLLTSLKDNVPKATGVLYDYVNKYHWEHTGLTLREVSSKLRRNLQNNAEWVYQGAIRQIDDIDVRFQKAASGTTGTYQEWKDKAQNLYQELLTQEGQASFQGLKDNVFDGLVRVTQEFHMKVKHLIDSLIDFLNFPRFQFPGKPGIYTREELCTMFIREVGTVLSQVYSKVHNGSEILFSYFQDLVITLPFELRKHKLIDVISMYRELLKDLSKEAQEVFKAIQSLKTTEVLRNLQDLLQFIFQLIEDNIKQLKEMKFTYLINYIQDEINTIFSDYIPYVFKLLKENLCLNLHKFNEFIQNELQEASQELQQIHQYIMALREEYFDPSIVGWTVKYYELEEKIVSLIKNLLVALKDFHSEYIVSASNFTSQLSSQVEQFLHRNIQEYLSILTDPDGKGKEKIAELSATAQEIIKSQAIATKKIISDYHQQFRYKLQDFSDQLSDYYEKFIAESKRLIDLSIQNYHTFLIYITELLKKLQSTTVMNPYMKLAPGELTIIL

How the values were obtained:
[1] = target: T1, endogenous apoB100 of IHH cells (human, UniProt P04114 28-4563); experiment: co-immunoprecipitation with a human ApoB antibody, Western blot for the V5 tag (legend of FIG. 7I)
T1 construct: Endogenous protein in lysates of human IHH cells; also called apolipoprotein B

[2] = target: T1, endogenous apoB100 of IHH cells; experiment: summary of the co-immunoprecipitation and co-expression experiments of Example 2
[3] = target: T1, endogenous apoB100 of IHH cells; experiment: co-immunoprecipitation: IHH cell lysates immunoprecipitated with mAb-V5, Western blot with an apoB100 antibody (FIG. 7H)
[4] = target: T1, endogenous apoB100 of IHH cells; experiment: co-immunoprecipitation: IHH cell lysates immunoprecipitated with a human ApoB antibody, Western blot for the V5 tag (FIG. 7I)

binding [1]: binds
binding [2]: binds
binding [3]: binds
binding [4]: binds
B1: human PC7 tagged with V5 at the C-terminus (enzyme, not shown: small tags and cut ends)
chain: SVHFNDPKYPQQWHLNNRRSPGRDINVTGVWERNVTGRGVTVVVVDDGVEHTIQDIAPNYSPEGSYDLNSNDPDPMPHPDVENGNHHGTRCAGEIAAVPNNSFCAVGVAYGSRIAGIRVLDGPLTDSMEAVAFNKHYQINDIYSCSWGPDDDGKTVDGPHQLGKAALQHGVIAGRQGFGSIFVVASGNGGQHNDNCNYDGYANSIYTVTIGAVDEEGRMPFYAEECASMLAVTFSGGDKMLRSIVTTDWDLQKGTGCTEGHTGTSAAAPLAAGMIALMLQVRPCLTWRDVQHIIVFTATRYEDRRAEWVTNEAGFSHSHQHGFGLLNAWRLVNAAKIWTSVPYLASYVSPVLKENKAIPQSPRSLEVLWNVSRMDLEMSGLKTLEHVAVTVSITHPRRGSLELKLFCPSGMMSLIGAPRSMDSDPNGFNDWTFSTVRCWGERARGTYRLVIRDVGDESFQVGILRQWQLTLYGSVWSAVDIRDRQRLLESAMSGKYLHDDFALPCPPGLKIPEEDGYTITPNTLKTLVLVGCFTVFWTVYYMLEVYLSQRNVASNQVCRSGPCHWPHRSRKAKEEGTELESVPLCSSKDPDEVETESRGPPTTSDLLAPDLLEQGDWSLSQNKSALDCPHQHLDVPHGKEEQIC
